Data on three molecules can be found in article PMC10914751.

The target in test [1] is T1, ZZ-tagged Plk4 CPB (581–884) (UniProt O00444).
T1 sequence: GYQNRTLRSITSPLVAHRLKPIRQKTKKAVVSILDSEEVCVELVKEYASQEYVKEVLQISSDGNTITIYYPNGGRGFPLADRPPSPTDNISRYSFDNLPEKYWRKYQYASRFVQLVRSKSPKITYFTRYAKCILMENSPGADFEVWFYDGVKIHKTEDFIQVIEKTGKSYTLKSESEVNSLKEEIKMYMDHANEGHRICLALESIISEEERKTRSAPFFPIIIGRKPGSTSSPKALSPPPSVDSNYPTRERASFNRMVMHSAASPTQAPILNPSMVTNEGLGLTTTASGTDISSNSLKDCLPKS
Briefly: affinity purification with mass spectrometry; ZZ-tagged Plk4 CPB(581–884) in lysate of transfected HEK293T cells, human IgG column, AcTEV digestion, elution with TBSN buffer; SDS-PAGE bands, nanoLC-tandem MS (Expt. 1).

For test [2], the target named is T2, FLAG-tagged Plk4 CTD (581–970) (UniProt O00444).
T2 sequence: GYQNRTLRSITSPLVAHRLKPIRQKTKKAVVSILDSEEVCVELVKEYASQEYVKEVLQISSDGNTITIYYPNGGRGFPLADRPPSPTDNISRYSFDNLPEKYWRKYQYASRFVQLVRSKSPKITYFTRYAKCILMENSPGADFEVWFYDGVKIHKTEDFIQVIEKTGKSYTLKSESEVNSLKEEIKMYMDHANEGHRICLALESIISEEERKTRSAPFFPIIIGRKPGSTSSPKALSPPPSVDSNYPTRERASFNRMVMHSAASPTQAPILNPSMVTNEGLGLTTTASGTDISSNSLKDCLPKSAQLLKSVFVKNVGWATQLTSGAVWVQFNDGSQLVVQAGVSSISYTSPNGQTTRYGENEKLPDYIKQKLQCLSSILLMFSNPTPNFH
Briefly: affinity purification with mass spectrometry; FLAG-tagged Plk4 CTD(581–970) stably expressed in HEK293T cells, anti-FLAG immunoprecipitation; SDS-PAGE bands, nanoLC-tandem MS (Expt. 2).

These are yes or no findings as the source states them, for the method shown. In cells and extracts the contact can be indirect. A yes stands for co-enrichment or nearness to the bait. Other partners may have been found. Tags and fused reporters may be left off the sequences shown.

B1: Cep57 (endogenous) (protein, UniProt Q86XR8 1-500)
chain: MAAASVSAASGSHLSNSFAEPSRSNGSMVRHSSSPYVVYPSDKPFLNSDLRRSPSKPTLAYPESNSRAIFSALKNLQDKIRRLELERIQAEESVKTLSRETIEYKKVLDEQIQERENSKNEESKHNQELTSQLLAAENKCNLLEKQLEYMRNMIKHAEMERTSVLEKQVSLERERQHDQTHVQSQLEKLDLLEQEYNKLTTMQALAEKKMQELEAKLHEEEQERKRMQAKAAELQTGLETNRLIFEDKATPCVPNARRIKKKKSKPPEKKSSRNYFGAQPHYRLCLGDMPFVAGKSTSPSHAVVANVQLVLHLMKQHSKALCNDRVINSIPLAKQVSSRGGKSKKLSVTPPSSNGINEELSEVLQTLQDEFGQMSFDHQQLAKLIQESPTVELKDKLECELEALVGRMEAKANQITKVRKYQAQLEKQKLEKQKKELKATKKTLDEERNSSSRSGITGTTNKKDFMKLRPGEKRRKNLQLLKDMQSIQNSLQSSSLCWDY
Consider B1, for which the binding result in test [1] and in test [2] was “binds” in each case.

B2: Cep63 (endogenous) (protein, UniProt Q96MT8 1-703)
chain: MEALLEGIQNRGHGGGFLTSCEAELQELMKQIDIMVAHKKSEWEGRTHALETCLKIREQELKSLRSQLDVTHKEVGMLHQQVEEHEKIKQEMTMEYKQELKKLHEELCILKRSYEKLQKKQMREFRGNTKNHREDRSEIERLTAKIEEFRQKSLDWEKQRLIYQQQVSSLEAQRKALAEQSEIIQAQLVNRKQKLESVELSSQSEIQHLSSKLERANDTICANELEIERLTMRVNDLVGTSMTVLQEQQQKEEKLRESEKLLEALQEEKRELKAALQSQENLIHEARIQKEKLQEKVKATNTQHAVEAIRPREESLAEKKYTSQGQGDLDSVLSQLNFTHTSEDLLQAEVTCLEGSLESVSATCKQLSQELMEKYEELKRMEAHNNEYKAEIKKLKEQILQGEQSYSSALEGMKMEISHLTQELHQRDITIASTKGSSSDMEKRLRAEMQKAEDKAVEHKEILDQLESLKLENRHLSEMVMKLELGLHEAKEISLADLQENYIEALNKLVSENQQLQKDLMNTKSQLEISTQMCKKQNDRIFKPTHSRTTEFKNTEFKPTHGQHRHDGIKTEHYKTDLHSPRGQASDSINPMSRVLSPLSPQISPCSSTRSLTSYSLCKTHSLPSALDTNEANFSDTMSESMNDQEEFISSCSLPVSPLGSIATRFLEEEELRSHHILERLDAHIEELKRESEKTVRQFTALK
With B2, the binding entry in test [1] and in test [2] was “binds” throughout.

B3: Cep135 (endogenous) (protein, UniProt Q66GS9 1-1140)
chain: MTTAVERKYINIRKRLDQLGYRQTLTVECLPLVEKLFSDLVHTTESLRQSKLSAVKAEKESANFDFVLEPYKLENARLSRENNELYLELMKLREHSDQHVKELKTSLKKCARETADLKFLNNQYAHKLKLLEKESKAKNERIQQLQEKNLHAVVQTPGGKKRSIAFRRQRMQIDEPVPPSEVSSYPVPQPDDPYIADLLQVADNRIQELQQEVHQLQEKLAMMESGVRDYSKQIELREREIERLSVALDGGRSPDVLSLESRNKTNEKLIAHLNIQVDFLQQANKDLEKRIRELMETKETVTSEVVNLSNKNEKLCQELTEIDQLAQQLERHKEEVLETADKELGEAKKEIKRKLSEMQDLEETMAKLQLELNLCQKEKERLSDELLVKSDLETVVHQLEQEKQRLSKKVESFAVTERQLTLEVERMRLEHGIKRRDRSPSRLDTFLKGIEEERDYYKKELERLQHIIQRRSCSTSYSAREKSSIFRTPEKGDYNSEIHQITRERDELQRMLERFEKYMEDIQSNVKLLTAERDKLSVLYNEAQEELSALRKESTQTTAPHNIVSLMEKEKELALSDLRRIMAEKEALREKLEHIEEVSLFGKSELEKTIEHLTCVNHQLESEKYELKSKVLIMKETIESLENKLKVQAQKFSHVAGDSSHQKTEVNSLRIVNEQLQRSVDDYQHRLSIKRGELESAQAQIKILEEKIDELNLKMTSQDEEAHVMKKTIGVIDKEKDFLQETVDEKTEKIANLQENLANKEKAVAQMKIMISECESSVNQLKETLVNRDREINSLRRQLDAAHKELDEVGRSREIAFKENRRLQDDLATMARENQEISLELEAAVQEKEEMKSRVHKYITEVSRWESLMAAKEKENQDLLDRFQMLHNRAEDWEVKAHQAEGESSSVRLELLSIDTERRHLRERVELLEKEIQEHINAHHAYESQISSMAKAMSRLEEELRHQEDEKATVLNDLSSLRELCIKLDSGKDIMTQQLNSKNLEFERVVVELENVKSESDLLKKQLSNERHTVKNLESLLATNRDKEFHSHLTSHEKDTEIQLLKEKLTLSESKLTSQSRENTMLRAKVAQLQTDYDALKRQISTERYERERAIQEMRRHGLATPPLSSTLRSPSHSPEHRNV
For B3, the binding entry in test [1] and in test [2] was “binds” each time.
